Assay results reported in paper PMC12849885.

Columns and labels:
[1] = system: His-FoxO (Recilia dorsalis); assay: EMSA; settings: supershift with anti-FoxO antibody; EMSA/Gel-Shift Binding Buffer (Beyotime GS005), 25 C, 20 min; 6% polyacrylamide gel in Tris-borate; salt and pH not stated; recombinant protein; protein details: His; label: Cy5 (legend of Fig 5D says biotin)
[2] = system: His-FoxO (Recilia dorsalis); assay: competition with a labelled probe; settings: unlabeled dilution series against labeled probe B; EMSA/Gel-Shift Binding Buffer (Beyotime GS005), 25 C, 20 min; 6% polyacrylamide gel in Tris-borate; salt and pH not stated; recombinant protein; protein details: His

| Sequence | binding result [1] | binding result [2] |
| --- | --- | --- |
| ATCATAAATATGTTTATTTATGATAATTTA (double strand) [BOK promoter probe B] | binds |  |
| ATCATAAATATGTTTATTTATGATAATTTA (double strand) [unlabeled competitor B] |  | binds |

Construct, isoform or probe ends are uncertain for at least one entry.
